Here are results for 85 molecules from PubChem BioAssay AID743402 (Broad Institute, 2014).

Screen size: about 1,200 compounds; about 140 (12%) were called active.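 How the source made its calls: active means fitted curve falls past -35% activity change at a dose under twice the top valid dose, in every replicate test; inconclusive means replicate tests disagree on the call; inactive means the rest, including activity in the opposite direction.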 The list lacks most of the strong results.

The nature of the test: CFTR-F508del correctors, dose response, FRT cells, YFP quenching, cherry-pick (AID 743402).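 Further: compounds act as correctors raising surface CFTR-F508del before acute activation.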 Particulars: FRT CFTR-F508del YFP iodide quenching, 24 h, channel opened with forskolin and a potentiator; at 26 µM (top of the series) unless noted.
Regarding `COC(=O)c1c(-c2ccc(C)cc2)csc1NC(=O)c1c(-c2ccccc2)noc1C`, the activity change, negative = more quenching (active) is inactive: 3.33%. As for `COC(=O)c1cn(NC(=O)c2cc([N+](=O)[O-])ccc2F)c(=O)c2ccccc12`, the figure is inactive: 9.58%; as for `CCC1=Nc2cc(C(=O)NCC3CCCO3)ccc2Sc2ccc(Cl)cc21` (stereo not given), inactive: 0%.

In the case of `C=C1C(=O)[C@]23C[C@H]1CC[C@H]2[C@]1(C)[C@@H](OC(C)=O)CC[C@@](C)(C(=O)O)[C@H]1C[C@@H]3O`, the activity change, negative = more quenching (active) is inactive: 10%. As for `COc1ccc(Nc2nc(-c3sc(C)nc3C)cs2)cc1`, the figure is inactive: -19.2%; as for `COc1cc2c(cc1OC)C(c1cccs1)N(C(=O)c1cccnc1)CC2` (stereo not given), inactive: -3.33%. As for `Cc1nnc(NC(=O)CSc2nccn2-c2cccc(C)c2C)s1`, the figure is inactive: 0%; as for `O=C1CN(S(=O)(=O)Cc2ccccc2)C[C@@H]2[C@@H](c3ccc(C#Cc4cccc(F)c4)cc3)[C@H](CO)N12`, inactive: -3.57%. For `CCC(=O)NC(c1ccc(C)cc1)c1ccc2cccnc2c1O` (stereo not given) the value was inactive: 13.3%; for `C[C@H](CO)N1C[C@H](C)[C@H](CN(C)C(=O)NC2CCCCC2)Oc2cc(C#Cc3ccc(F)cc3)ccc2S1(=O)=O`, inactive: 16.5%.

Turning to `C/C=C/c1ccc2c(c1)O[C@@H](CN(C)C(=O)Nc1cccc(F)c1)[C@H](C)CN([C@H](C)CO)S2(=O)=O`, the activity change, negative = more quenching (active) is inactive: 6.91%.

`Cn1c(NCc2ccccc2F)nc2cc(-c3ccsc3)sc2c1=O`: the activity change, negative = more quenching (active) is inactive: -16.7%. As for `CCOC(=O)CSC1=C(C#N)C(c2ccc(C)s2)CC(=O)N1` (stereo not given), the figure is inactive: 9.79%; as for `Cc1cccc(OCC(=O)NNC(=O)c2ccc3nc[nH]c3c2)c1`, inactive: 1.61%.

For the molecule `CCN(CC)C(=O)c1oc2ccc(S(=O)(=O)N3CC(C)CC(C)C3)cc2c1C` (stereo not given), the activity change, negative = more quenching (active) was inactive: 17.5%. For `CC(C)(C)c1csc(NC(=O)Cc2cccs2)n1` the value was inactive: -10%; for `N#C[C@H]1[C@H](c2ccc(C3=CCCCC3)cc2)[C@@H](CO)N1C(=O)NC1CCCCC1`, inactive: -3.57%. As for `COCCCN=C1NN=C(c2cc(C)n(Cc3ccccc3Cl)c2C)CS1`, the figure is inactive: 7.14%. Turning to `Cc1csc2sc(-c3ccnc(SCC(=O)NCc4ccccc4)n3)c(C)c12`, the activity change, negative = more quenching (active) was inactive: 3.85%. As for `COc1ccccc1N1CC(C(=O)Nc2ccc(S(=O)(=O)N3CCCC3)cc2)CC1=O` (stereo not given), the figure is inactive: 9.58%; as for `Cc1c(C2Nc3ccccc3C2C)[nH]c2ccccc12` (stereo not given), inactive: -3.57%; as for `Nc1ccn([C@@H]2O[C@H](CO)[C@@H](O)[C@@H]2O)c(=O)n1`, inactive: -6.67%.

`COc1cccc(NC(=O)CN2C(=O)NC3(CCCCCC3)C2=O)c1`: the activity change, negative = more quenching (active) is inactive: 6.67%. For `CC(C)(C)NC(=O)c1cccc2c1-c1ccccc1C2=O` the value was inactive: 8.99%.

On to `COc1cc(-c2noc(C)c2C#Cc2ccsc2)cc(OC)c1OC`, for which the activity change, negative = more quenching (active) was inactive: 7.96%. As for `O=C(Nc1ccc(F)cc1)C1CCN(C(=O)c2ccc(F)cc2)CC1`, the figure is inactive: 7.96%. In the case of `COC(=O)c1cn(C(=O)c2ccc(C)cc2C)c2ccccc12`, the activity change, negative = more quenching (active) is inactive: 7.42%. For the molecule `O=C(NCc1cccs1)c1cc(-c2ccccc2)nn1CC1CC(c2cccc([N+](=O)[O-])c2)=NO1` (stereo not given), the activity change, negative = more quenching (active) was inactive: 10%. As for `CCN(c1cccc(C)c1)S(=O)(=O)c1ccc(-c2cc(C)no2)s1`, the figure is inactive: 6.67%. For `COc1ccc(-c2csc(NC(=S)NC(=O)/C=C/c3ccco3)n2)cc1OC` the value was inactive: -15.4%; for `Cc1c(OCC(=O)NCCN2CCOCC2)ccc2c3c(c(=O)oc12)CCC3`, inactive: 0%; for `CCOc1ccc(-c2cc(C(=O)N3CCN(c4ccccn4)CC3)c3ccccc3n2)cc1`, inactive: 22.5%. Regarding `COc1ccc([N+](=O)[O-])cc1Nc1c2ccccc2nc2ccccc12`, the activity change, negative = more quenching (active) is inactive: -20.9%. As for `Cc1ccc(C(=O)NNC(=O)c2ccc(S(=O)(=O)N3CCCCC3)cc2)cc1`, the figure is inactive: 20.9%; as for `O=C(C[C@H]1CC[C@@H]2[C@H](COC[C@@H](O)CN2S(=O)(=O)c2ccccc2)O1)Nc1ccc(-c2ccccc2)cc1`, inactive: 14.3%; as for `COc1ccccc1CNC(=O)Cn1cnnn1`, inactive: 16.7%. As for `Oc1cccc(/C=N/Nc2ccc(Cl)nn2)c1O`, the figure is inactive: 9.79%; as for `COc1ccccc1C#Cc1ccc2c(c1)O[C@@H](CN(C)Cc1cccnc1)[C@H](C)CN([C@H](C)CO)S2(=O)=O`, inactive: 1.85%; as for `COc1ccccc1C#Cc1ccc2c(c1)O[C@@H](CN(C)Cc1cccnc1)[C@H](C)CN([C@@H](C)CO)S2(=O)=O`, inactive: 3.57%. For `COc1ccc(CNCC(=O)Nc2ccccc2-n2cccc2)cc1` the value was inactive: 16%; for `Cc1ccc(S(=O)(=O)Nc2cc(C)cc(CCNC=O)c2C)cc1`, inactive: -1.85%; for `Cc1ccc(Cc2c(-c3ccc(C)cc3)nc3c(C)cc(Br)cn23)cc1`, inactive: 10.8%. Take `Nc1nc(Cl)nc2c1ncn2C1CC(O)C(CO)O1` (stereo not given): the activity change, negative = more quenching (active) was inactive: -4.84%. As for `Cc1cccc(C)c1OCC(=O)OCC(=O)Nc1ccc(Cl)cn1`, the figure is inactive: -3.57%; as for `CC(O)CNc1nc(N)[nH]c(=O)c1N=Nc1ccccc1` (stereo not given), inactive: 6.67%; as for `CCNC(=S)NNC(=O)CC(C)C`, inactive: 6.46%. For `Clc1ccc(SCc2cc(N3CCOCC3)nc(-c3ccccn3)n2)cc1` the value was inactive: 3.12%; for `CC(=O)O[C@H]1C(=O)[C@]2(C)[C@H]([C@H](OC(=O)c3ccccc3)[C@]3(O)C[C@H](OC(=O)[C@H](O)[C@@H](NC(=O)c4ccccc4)c4ccccc4)C(C)=C1C3(C)C)[C@]1(OC(C)=O)CO[C@@H]1C[C@@H]2O`, inactive: 12.7%; for `COc1ccc(S(=O)(=O)N2CC[C@@H]3[C@@H](CO)Nc4ccc(-c5cccc(C#N)c5)cc4[C@@H]32)cc1`, inactive: 0%. On to `O=C(Nc1ccccc1F)N1C[C@H]2[C@@H](c3ccccc31)[C@@H](CO)N2C(=O)c1ccccn1`, for which the activity change, negative = more quenching (active) is inactive: 3.57%. For `Cn1cccc1/C=C1\SC(=Nc2cccc(O)c2)NC1=O` the value was inactive: 8.28%; for `COc1ccc2sc3cccc(NCCN(C)C)c3c(=O)c2c1`, inactive: -3.12%. For `COc1cc(/C=C(\CC(=O)O)c2nc3ccccc3s2)ccc1OCC(=O)Nc1ccccc1F` the value was inactive: 0%; for `OC[C@@H]1CN(Cc2ccc(-c3ccccc3)cc2)C[C@H](n2cnc3c(NC4CC4)ncnc32)O1`, inactive: 6.46%.

For `Cc1ccc2[nH]c(C(=O)N/N=C/c3ccccc3O)c(C)c2c1`, the activity change, negative = more quenching (active) is inactive: 18.8%. For `Cc1cccc(COc2ccccc2C(=O)NC2CCC(O)CC2)c1` (stereo not given) the value was inactive: 6.67%. For `COc1ccc(/C=C2\SC(=O)N(CCNC(=O)C3=COCCO3)C2=O)cc1` the value was inactive: 6.97%; for `CC(C)Oc1ncnc2c1[nH]c1ccccc12`, inactive: 6.67%. For `C[C@H](CO)N1C[C@H](C)[C@@H](CN(C)C(=O)NC2CCCCC2)Oc2cc(C#Cc3ccc(F)cc3)ccc2S1(=O)=O` the value was inactive: 17.1%; for `COc1cc(OC)cc(-c2nc3ccccc3c(=O)n2OC(=O)c2ccc(C)c(C)c2)c1`, inactive: 0%; for `COC(=O)c1ccc(C(=O)NC2CCCc3c2cnn3-c2ccc(C)c(C)c2)cc1` (stereo not given), inactive: 3.33%. For `CO[C@H]1CN(C)C(=O)c2cc(NC(C)=O)ccc2OC[C@H](C)N(C(=O)c2ccncc2)C[C@H]1C`, the activity change, negative = more quenching (active) is inactive: 7.14%.

As for `CCOc1ccc(C(=O)NCC(=O)N2CCN(Cc3ccccc3)CC2)cc1`, the activity change, negative = more quenching (active) is inactive: 7.96%. As for `Cc1ncc(CO)c(/C=N/Nc2ccc(C(F)(F)F)cn2)c1O`, the figure is inactive: -6.46%; as for `COc1cc(/C=C(\C#N)C(=O)c2c[nH]c3ccccc23)cc(OC)c1O`, inactive: -37.5%; as for `CC#CCOCC1CNC(=O)O1` (stereo not given), inactive: 0%. For `CC1CCN(S(=O)(=O)N2CCCC(C(=O)NCc3ccccc3Cl)C2)CC1` (stereo not given) the value was inactive: 13.3%; for `CC1(Cc2ccc(F)cc2)C(=O)Nc2c(Cl)ccc(Cl)c21` (stereo not given), inactive: 3.33%. For `Cc1ccc(C(=O)NCC(=O)OCC(=O)NC(C)c2ccccc2)s1` (stereo not given), the activity change, negative = more quenching (active) is inactive: 13.3%. As for `COc1cc(OC)c2c(-c3cccc(-c4sccc4C(C)=O)c3)cc(=O)oc2c1`, the figure is inactive: -3.12%; as for `C[C@H]1CCCCO[C@@H](CN(C)C(=O)Nc2ccc(C(F)(F)F)cc2)[C@@H](C)CN([C@@H](C)CO)C(=O)c2cc(NC(=O)Nc3ccc4c(c3)OCO4)ccc2O1`, inactive: 14.3%; as for `O=C(NCc1ccccn1)c1n[nH]c(=O)c2ccccc12`, inactive: 9.79%. As for `C/C(=N\NC(=O)c1c(Cl)c(C)nn1C)c1ccc(NC(=O)C2CCC2)cc1`, the figure is inactive: 7.96%.

`O=C(COC(=O)/C=C/c1ccccc1Cl)NC(=O)NCc1ccccc1`: the activity change, negative = more quenching (active) was inactive: -3.33%. As for `COc1ccc(/C=N/NC(=O)c2c(C)nc3ccc(Br)cn23)cc1OC`, the figure is inactive: 3.33%. Take `Nc1[nH]nc2ncc3cc4ccccc4nc3c12`: the activity change, negative = more quenching (active) is inactive: 4.17%. As for `C#CCN(C)CCCOc1ccc(Cl)cc1Cl`, the activity change, negative = more quenching (active) is inactive: 0%.

For the molecule `COc1cccc(NC(=O)c2cnc(SCC(=O)NCc3ccc4c(c3)OCO4)n(C)c2=O)c1`, the activity change, negative = more quenching (active) was inactive: 10%. As for `O=C(NCc1nnnn1-c1ccc(Cl)cc1)C(=O)c1c[nH]c2ccccc12`, the figure is inactive: 6.46%. As for `COc1cc(C(=O)N/N=C(\c2ccccc2)c2ccccn2)cc(OC)c1OC`, the figure is inactive: 50%; as for `N#Cc1nc(NCC(F)F)nc(Nc2cc(F)cc(F)c2)n1`, inactive: -14.6%. For `COc1ccc(OC)c(N/C(N)=N/c2nc(C)cc(C)n2)c1` the value was inactive: 16.7%; for `COc1ccccc1N1CCN(C(CNS(=O)(=O)c2cccs2)c2cccnc2)CC1` (stereo not given), inactive: 3.12%; for `O=C(CCCN1CCC(O)(c2cccc(C(F)(F)F)c2)CC1)c1ccc(F)cc1`, inactive: 18.8%.

Turning to `Cc1ccc(-c2ccc3c(c2)O[C@@H](CN(C)Cc2ccccn2)[C@H](C)CN([C@H](C)CO)S3(=O)=O)cc1`, the activity change, negative = more quenching (active) is inactive: -7.14%.
